From article PMC11094094
No constants are given. Whether binding was seen depends on the method and setting. Binding seen in cells or lysates may run through a third protein. Some entries that bind do so weakly or less than the wild type. Where a sequence is shown, tags or fusion partners need not be part of it.

Target: T1, Evi5-3xFlag expressed in S2 cells (pAFW-Evi5-3XFlag) (Drosophila) (UniProt Q9VYY9)
T1 sequence: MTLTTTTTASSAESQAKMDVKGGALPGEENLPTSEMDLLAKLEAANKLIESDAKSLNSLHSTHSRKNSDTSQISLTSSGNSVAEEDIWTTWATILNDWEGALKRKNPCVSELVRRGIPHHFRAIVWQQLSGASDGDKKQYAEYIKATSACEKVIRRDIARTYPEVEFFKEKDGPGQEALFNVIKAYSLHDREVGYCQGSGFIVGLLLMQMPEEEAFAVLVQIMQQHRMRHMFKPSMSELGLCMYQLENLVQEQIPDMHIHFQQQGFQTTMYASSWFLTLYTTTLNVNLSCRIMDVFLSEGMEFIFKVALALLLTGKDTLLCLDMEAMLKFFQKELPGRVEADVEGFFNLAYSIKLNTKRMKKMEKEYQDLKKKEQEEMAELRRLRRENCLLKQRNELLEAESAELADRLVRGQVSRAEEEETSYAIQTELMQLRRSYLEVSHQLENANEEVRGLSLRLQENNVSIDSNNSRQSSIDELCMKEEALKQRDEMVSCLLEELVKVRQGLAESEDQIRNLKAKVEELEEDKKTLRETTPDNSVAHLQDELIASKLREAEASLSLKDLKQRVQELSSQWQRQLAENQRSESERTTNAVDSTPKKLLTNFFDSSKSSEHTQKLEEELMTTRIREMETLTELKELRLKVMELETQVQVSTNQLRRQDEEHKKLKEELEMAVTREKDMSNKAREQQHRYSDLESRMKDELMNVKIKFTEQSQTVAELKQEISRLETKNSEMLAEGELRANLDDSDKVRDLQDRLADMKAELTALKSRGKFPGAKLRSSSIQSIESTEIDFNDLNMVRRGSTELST
Experiment: co-IP; S2 cells co-transfected with plasmids; Flag-tagged Evi5 as bait; blots with anti-Flag and anti-Myc

binding: binds
B1: Fer1HCH-3xMyc expressed in S2 cells (protein, UniProt Q7KRU8 20-205)
chain: DFKCSLAVPEITKDWVDMKDACIKGMRNQIQEEINASYQYLAMGAYFSRDTVNRPGFAEHFFKAAKEEREHGSKLVEYLSMRGQLTEGVSDLINVPTVAKQEWTDGAAALSDALDLEIKVTKSIRKLIQTCENKPYNHYHLVDYLTGVYLEEQLHGQRELAGKLTTLKKMMDTNGELGEFLFDKTL
